Data taken from PubChem BioAssay AID504834 (National Center for Advancing Translational Sciences (NCATS), 2011).
Among all 320,000 compounds or so, about 22,000 (6.9%) were called active. The shares of active, inactive and inconclusive entries below differ from those in the screen. Calls come from the whole dose curve; as a rule, active = well fitted inhibition curve with a large enough effect; inconclusive = small, poorly fitted or top-dose-only effect, or another doubt; inactive = no such curve, though single readings can be large or run the other way. Potencies beside an inconclusive call are fits to weak or partial responses and may not hold up.

Assay: Primary qHTS for delayed death inhibitors of the malarial parasite plastid, 96 hour incubation
Details: P. falciparum luciferase reporter growth; series mostly up to 28.7 µM; activity change, negative = inhibition: at the top concentration
How it was run: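 Two parasite generations (96 h, 37 C, 5% CO2) of compound exposure in infected erythrocytes (0.05% parasitemia, 2% hematocrit). Luciferase-reporter P. falciparum; decreased luminescence indicates inhibited growth, aimed at apicoplast-acting delayed death.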
% is set by controls: 0 for no effect and ±100 for the full control effect; potency is the fitted concentration of half-maximal effect.

Row | Compound | Potency | activity change, negative = inhibition
1 | CN(C(=S)Nc1ccccc1F)C1(c2ccccc2Cl)CCCCC1=O (configuration not stated) | inconclusive: 13.1 µM [inhibitor, single point] | –
2 | CCOc1ccc(/C=C2\CCC(C3CCCC3)C2=O)cc1OC (configuration not stated) | inconclusive: 18.5 µM [inhibitor, single point] | –
3 | Cc1ccc(S(=O)(=O)c2nc(C)oc2NCc2ccccc2)cc1 | – | inactive: -0.608%
4 | CCOC(=O)CCCCC(=O)c1[nH]c(=O)[nH]c1CSc1nnc2c3ccccc3n(C(C)C)c2n1 | inconclusive: 11.7 µM [inhibitor, single point] | –
5 | O=C(COC(=O)/C=C/c1ccc(Br)o1)NCCCN1CCCC1=O | – | inactive: 8.73%
6 | CN1CCN(Cc2cn(C)c3ccccc23)CC1CCO (configuration not stated) | inconclusive: 16.5 µM [inhibitor, single point] | –
7 | Cc1cc(-c2n[nH]c(=S)n2/N=C/c2c[nH]c3ccccc23)n[nH]1 | inconclusive: 3.7 µM [inhibitor, partial curve] | –
8 | O=C(Nc1ccc(Cc2ccncc2)cc1)c1ccc([N+](=O)[O-])o1 | – | inactive: -23.2%
9 | COc1ccc(-c2nnn(-c3cc(Cl)cc(Cl)c3)c2N)cc1 | inconclusive: 9.28 µM [inhibitor, single point] | –
10 | COc1cccc(CNC(=O)CN2CCC(c3nc4ccc(C)cc4[nH]3)CC2)c1 | – | inactive: -2.16%
11 | N#C/C(=C\c1c[nH]c2ccccc12)C(=O)NC1CCCC1 | inconclusive: 10.4 µM [inhibitor, single point] | –
12 | COC(=O)CCSCC(=O)N1N=C(c2ccc(Br)cc2)CC1c1cccc(OC)c1OC (configuration not stated) | inconclusive: 14.7 µM [inhibitor, partial curve, poor fit] | –
13 | CCOC(=O)CCCNC(=O)CCNC(=O)c1ccc(OCC(C)C)cc1 | – | inactive: -3.12%
14 | CCOc1cc(C(=S)N2CCOCC2)ccc1O | active: 13.1 µM | –
15 | O=C(Cn1ccnc1[N+](=O)[O-])NCCO | – | inactive: -8.82%
16 | O=C1c2ccccc2C(=O)N1CC(=O)N1c2ccccc2Sc2ccc(C(F)(F)F)cc21 | – | inactive: -0.84%
17 | CC1CC(C)CN(C(=O)CSc2nnc(-c3ccco3)o2)C1 (configuration not stated) | inconclusive: 13.1 µM [inhibitor, single point] | –
18 | O=C(CCCc1ccccc1)NCCN1CCOCC1 | – | inactive: 22.7%
19 | COc1ccc2c(c1)c1nnc(SCC(=O)NC3CC3)nc1n2C | – | inactive: -8.13%
20 | O=C(CSc1nncs1)Nc1ccc(N2CCCCC2)cc1 | – | inactive: 232%
21 | COc1ccccc1NC(=O)CN1C(=O)COc2ccc(S(=O)(=O)N3CCCCCC3)cc21 | inconclusive: 10.4 µM [inhibitor, single point] | –
22 | Cc1noc(C)c1CSCC(=O)Nc1nc2ccc(Oc3ccccc3)cc2s1 | inconclusive: 3.29 µM [inhibitor, full curve, poor fit] | –
23 | COc1ccc(C2C(C(C)=O)=C(O)C(=O)N2c2ccc(F)cc2)cc1 (configuration not stated) | inconclusive: 2.08 µM [inhibitor, partial curve, poor fit] | –
24 | O=S(=O)(c1cc(F)ccc1F)N1CCN2CCCC2C1 (configuration not stated) | inconclusive: 11.7 µM [inhibitor, single point] | –

In another format: 2 of the compounds above.
Row	Compound	Potency	activity change, negative = inhibition
13	CCOC(=O)CCCNC(=O)CCNC(=O)c1ccc(OCC(C)C)cc1	–	inactive: -3.12%
19	COc1ccc2c(c1)c1nnc(SCC(=O)NC3CC3)nc1n2C	–	inactive: -8.13%

Later entries:

Row | Compound | Potency | activity change, negative = inhibition
25 | O=C(Cc1ccccc1F)OCN1C(=O)c2ccccc2C1=O | inconclusive: 0.0586 µM [inhibitor, partial curve, poor fit] | –
26 | CCN(CC)CCN1C(=O)c2cccc3cc(N)cc(c23)C1=O | inconclusive: 10.4 µM [inhibitor, single point] | –
27 | CC(C)OC(=O)Cn1nnc(-c2ccccc2)n1 | inconclusive: 18.5 µM [inhibitor, single point] | –
28 | COc1cccc(N2C(=NC(=O)COc3ccccc3)SC3CS(=O)(=O)CC32)c1 (configuration not stated) | inconclusive: 18.5 µM [inhibitor, single point] | –
29 | COc1ccc2cc3cc(C(=O)NCCN4CCc5ccccc5C4)sc3nc2c1 | active: 2.62 µM | –
30 | O=C(CSc1nnc(Cn2cnc3ccccc32)o1)c1ccccc1 | inconclusive: 11.7 µM [inhibitor, partial curve, poor fit] | –
31 | CC(=O)Nc1ccc(OCCOc2ccc(NC(C)=O)cc2)cc1 | – | inactive: 4.52%
32 | CCOC(=O)N/N=C/c1c(C)nn(-c2cccc(C(F)(F)F)c2)c1Cl | active: 1.47 µM | –
33 | N#Cc1ccccc1S(=O)(=O)N1CCN(CC(O)COc2ccccc2F)CC1 (configuration not stated) | inconclusive: 9.28 µM [inhibitor, single point] | –
34 | CC1CCc2c(C(=O)Nc3ccccn3)csc2C1 (configuration not stated) | – | inactive: 99.8%
35 | CCOC(=O)C(=O)Nc1ccc(S(=O)(=O)Nc2nccs2)cc1 | – | inactive: 9.88%
36 | CCOc1ccc(CN2CCN(C(=O)c3ccccc3)CC2)cc1 | – | inactive: 5%
37 | Fc1ccccc1Cc1noc(CN2CCN(c3ccc(Cl)cn3)CC2)n1 | inconclusive: 18.5 µM [inhibitor, single point] | –
38 | COCCn1cc(C(=O)N2CCN(C)CC2)c2c3ccccc3n(C)c2c1=O | inconclusive: 7.38 µM [inhibitor, partial curve] | –
39 | O=C1OC2(CCCCC2)CC2=C1C1O[C@](CCCCN3C(=O)c4ccccc4C3=O)(Cc3ccccc31)O2 | inconclusive: 1.9 µM [inhibitor, single point] | –
40 | CC1CCCCN1C(=O)CSc1ccc(-c2ccc(F)cc2)nn1 (configuration not stated) | inconclusive: 18.5 µM [inhibitor, single point] | –
41 | CCN(CC)c1ccc(NC2CC(=O)N(CCc3ccc(OC)cc3)C2=O)cc1 (configuration not stated) | active: 1.85 µM | –
42 | COc1cc(OC)cc(C(=O)NC(=S)NNC(=O)c2cnccn2)c1 | inconclusive: 10.4 µM [inhibitor, single point] | –
43 | O=C(CCC(=O)OCC(F)(F)C(F)F)Nc1ccccc1F | inconclusive: 11.7 µM [inhibitor, single point] | –
44 | CCOc1ccc(C(=O)NCCC(=O)N2CCC3(CC2)NCCc2[nH]cnc23)cc1OCC | – | inactive: 15.1%
45 | CC(C)C(NC(=O)CCNC(=O)c1ccc(C(C)(C)C)cc1)c1nc2ccccc2[nH]1 (configuration not stated) | inconclusive: 14.7 µM [inhibitor, partial curve, poor fit] | –
46 | Cc1ccc(C(=O)C(C)OC(=O)C2CC(=O)N(C3CCCCC3)C2)cc1 (configuration not stated) | inconclusive: 4.65 µM [inhibitor, partial curve] | –
47 | COc1ccc(-c2nnc(N3CCOCC3)c3ccccc23)cc1 | active: 13.1 µM | –
48 | CCc1cccc(NC(=O)Cn2cccc2)c1 | active: 4.65 µM | –

Entries of single compounds as entered above:
CCOC(=O)C(=O)Nc1ccc(S(=O)(=O)Nc2nccs2)cc1 is listed with activity change, negative = inhibition: inactive: 9.88%
Cc1ccc(C(=O)C(C)OC(=O)C2CC(=O)N(C3CCCCC3)C2)cc1 (configuration not stated) is listed with Potency: inconclusive: 4.65 µM [inhibitor, partial curve]
CC(C)OC(=O)Cn1nnc(-c2ccccc2)n1 is listed with Potency: inconclusive: 18.5 µM [inhibitor, single point]
CC1CCCCN1C(=O)CSc1ccc(-c2ccc(F)cc2)nn1 (configuration not stated) is listed with Potency: inconclusive: 18.5 µM [inhibitor, single point]

Following part

Row | Compound | Potency | activity change, negative = inhibition
49 | Cc1ccc(C2c3[nH]c4ccccc4c3C[C@H]3C(=O)N(c4ccccc4C(=O)N4CCC(C(=O)O)CC4)C(=O)N23)cc1 (some centres not stated) | active: 5.86 µM | –
50 | CCOc1ccc(CCNC(=O)c2ccc(OCc3c(C)noc3C)cc2)cc1OCC | active: 7.38 µM | –
51 | CCCc1nnc(NC(=O)CCC(=O)N2CCN(Cc3cc(Cl)ccc3OC)CC2)s1 | inconclusive: 18.5 µM [inhibitor, single point] | –
52 | COc1ccc(OC)c(NC(=O)c2ccc(CN3CCc4ccccc4C3)cc2)c1 | – | inactive: -28.3%
53 | Cc1ccc(CNC(=O)C23CN(Cc4ccccc4)CC2C(c2ccc([N+](=O)[O-])cc2)=NO3)o1 (configuration not stated) | inconclusive: 11.7 µM [inhibitor, partial curve, poor fit] | –
54 | Cc1ccccc1OC(C)C(=O)NCCCN1CCOCC1 (configuration not stated) | inconclusive: 18.5 µM [inhibitor, single point] | –
55 | Cc1oc(-c2ccccc2Cl)nc1CN(C)C(C)c1ccon1 (configuration not stated) | inconclusive: 18.5 µM [inhibitor, single point] | –
56 | COc1ccccc1N1CCN(C(=O)c2ccccc2NC(=O)C2CCCCC2C(=O)O)CC1 (configuration not stated) | active: 7.38 µM | –
57 | O=C1[C@H]2[C@@H](c3ccc(Cl)cc3)N3C(=O)N(c4cccc(Cl)c4)C(=O)[C@@]3(Cc3ccccc3)[C@H]2C(=O)N1C1CCCCC1 | active: 5.86 µM | –
58 | O=C(Cn1cnc2c(oc3ccccc32)c1=O)NCC1CCCO1 (configuration not stated) | inconclusive: 4.15 µM [inhibitor, partial curve, poor fit] | –
59 | O=C(O)C1CCCN(S(=O)(=O)c2cccc3cccnc23)C1 (configuration not stated) | active: 2.08 µM | –
60 | Cc1ccc(C(=O)Nc2ccncc2)cc1S(=O)(=O)N1CCOCC1 | inconclusive: 20.8 µM [inhibitor, single point] | –
61 | Cc1ccc(NC(=O)c2ccc(CSc3ccccn3)cc2)c(O)c1 | active: 3.7 µM | –
62 | O=C(O)c1cc(S(=O)(=O)N2CCN(c3ccccn3)CC2)ccc1Cl | inconclusive: 0.0033 µM [inhibitor, full curve, poor fit] | –
63 | Cc1ccc(S(=O)(=O)N2CCCCC2)cc1C(=O)N(CCc1ccccc1)Cc1ccccc1 | active: 9.28 µM | –
64 | COCCOC(=O)C1=C(C)NC(=O)NC1c1c(Cl)nc2c(C)cccn2c1=O (configuration not stated) | inconclusive: 5.86 µM [inhibitor, partial curve, poor fit] | –
65 | CCCc1nc2ccccc2[nH]1 | inconclusive: 18.5 µM [inhibitor, single point] | –
66 | CC(=O)N1c2ccccc2Sc2ccccc21 | inconclusive: 16.5 µM [inhibitor, single point] | –
67 | CC1Cc2ccccc2N1Cc1nc2cc(Cl)ccc2c(=O)[nH]1 (configuration not stated) | inconclusive: 18.5 µM [inhibitor, single point] | –
68 | CCOC(=O)c1ccc(NC(=O)/C=C/c2cccs2)cc1 | inconclusive: 5.86 µM [inhibitor, partial curve, poor fit] | –
69 | C/C(N)=C(/C#N)C(=O)CSc1ncnc2ccccc12 | – | inactive: -18.3%
70 | COc1ccccc1C(=O)CN1C(=O)NC2(CCc3ccccc32)C1=O (configuration not stated) | – | inactive: -3.16%
71 | O=C(Nc1scc(-c2ccccc2)c1C(=O)O)c1ccccc1Cl | – | inactive: 21.3%
72 | Cc1cccc(N(C(=O)c2snc(C(N)=O)c2N)C(C(=O)NC2CCCC2)c2ccncc2)c1 (configuration not stated) | inconclusive: 18.5 µM [inhibitor, single point] | –
